The values below come from patent publication US5131911A, “Use of indole derivative for dyeing keratin materials, tinctorial compositions, new compounds and dyeing process” (L'Oreal, priority 1988, dated 1992).

A short description of series [1]: dyeing of hair with copper sulphate composition, rinse, then indole composition. Also noted: species or system human.
Series [2] is described as follows: dyeing of hair with composition (A), then acid sodium nitrite composition (B). The following applies: for color obtained on hair: then sodium nitrite as in Example 16. On the set-up: species or system human.

As for `COc1ccc(O)c2c(C)c(C)[nH]c12` [2,3-dimethyl-4-hydroxy-7-methoxyindole], the “color obtained on hair” value in series [1] (Example 14, copper sulphate 1.0 g pH 9.5, 5 min, then 1.0 g per 100 g, pH 8.5, 5 min) is given as “olive-green hue”; in series [2] (Example 19, 2.5 g per 100 g, pH 6) it was “orangish color”. For the same molecule, in series [1] (Example 14, copper sulphate then 1.0 g per 100 g, pH 8.5), the “use of the hue obtained on hair” value was “can be used to counter ginger tones”.

Turning to `COc1ccc(O)c2[nH]c(C)c(C)c12` [2,3-dimethyl-7-hydroxy-4-methoxyindole], the “color obtained on hair” value in series [1] (Example 11, copper sulphate 1.0 g pH 9.5, 5 min, then 1.0 g per 100 g, pH 8.7, 5 min) was “pearly mahogany blond”; in series [2] (Example 20, 2.0 g per 100 g, pH 5.8), “orangish yellow color”.

As to `CCOc1ccc2[nH]ccc2c1O` [4-hydroxy-5-ethoxyindole, 5-ethoxy-4-hydroxyindole], the “color obtained on hair” value in series [2] (Example 17, 2.5 g per 100 g, pH 6) was “light golden chestnut color”.

With `COc1ccc2[nH]c(C)cc2c1O` [4-hydroxy-5-methoxy-2-methylindole], in series [1] (Example 9, copper sulphate 1.0 g pH 9.5, 5 min, then 0.5 g per 100 g, pH 10.2, 5 min), the “color obtained on hair” value is reported as “intense blue ash-blond color”.

In the case of `COc1ccc2[nH]ccc2c1O` [4-hydroxy-5-methoxyindole], the “color obtained on hair” value in series [1] (Example 5, copper sulphate 0.25 g pH 9.5, 5 min, then 0.62 g per 100 g, pH 8, 5 min) is “intense mauve color”; in series [2] (Example 18, 2.5 g per 100 g, pH 6) it was “light golden chestnut color”.

For `COc1c(O)ccc2cc[nH]c12` [6-hydroxy-7-methoxyindole], the “color obtained on hair” value in series [1] (Example 3, copper sulphate 1.0 g pH 9.5, 5 min, then 0.83 g per 100 g, pH 8.7, 5 min) is “matt ash-blond color”. Moreover, the “color of the highlight obtained on hair” value in series [2] (Example 16, 2.5 g per 100 g, pH about 5.8, 15 min, then sodium nitrite 2.5 g pH 3, 9 min) is “dark coppery mahogany”.
